Results taken from US20110136741A1 (priority 2008, published 2011).

Assay: general procedure: Fmoc solid-phase peptide synthesis; H-L-Thr(tBu)-ol-2-chlorotrityl resin; Rink amide or Rink amide AM resin; HATU/NMM
Settings: whole synthesis

Fmoc-Hag^3(allylglycine)-1-Nal^7-D-Trp^8-Lys^9-Thr^10 -Haq^14-Thr(ol)^15
crude HPLC purity (RP-HPLC): about 95%

Fmoc-Hag^3-Phe^6-Phe^7-D-Trp^8-Lys^9-Thr^10-Phe^11-Hag^14-NH2
crude HPLC purity (RP-HPLC): around 95%

cyclic unsaturated peptide of formula (I) in which -ΛA is H, R=benzyl, R1 is a bond, CH^2 is in D configuration, CH^3 is in L configuration, X=1-Nal, Y=D-Trp, W=Lys, Z=Thr, R2=-NHThr(ol)
isolated yield: 11%
final HPLC purity (RP-HPLC): >98%

unsaturated cyclic peptide of formula (I) in which −Λ is the chelating group DOTA, R=benzyl, R1 is a bond, CH^2 is in D configuration, CH^3 is in L configuration, X=1-Nal Y=D-Tr W=Lys, Z=Thr, R2=-NHThr (ol)
isolated yield: 29%
